Results as given in article PMC7360774.
No constants are given. Whether binding was seen depends on the method and setting. Binding seen in cells or lysates may run through a third protein. A yes stands for co-enrichment or nearness to the bait. Other partners may have been found. Sequences can lack the tags named with a protein.

Amino acid sequences for entries named in this document (tags omitted).
UniProt P35579: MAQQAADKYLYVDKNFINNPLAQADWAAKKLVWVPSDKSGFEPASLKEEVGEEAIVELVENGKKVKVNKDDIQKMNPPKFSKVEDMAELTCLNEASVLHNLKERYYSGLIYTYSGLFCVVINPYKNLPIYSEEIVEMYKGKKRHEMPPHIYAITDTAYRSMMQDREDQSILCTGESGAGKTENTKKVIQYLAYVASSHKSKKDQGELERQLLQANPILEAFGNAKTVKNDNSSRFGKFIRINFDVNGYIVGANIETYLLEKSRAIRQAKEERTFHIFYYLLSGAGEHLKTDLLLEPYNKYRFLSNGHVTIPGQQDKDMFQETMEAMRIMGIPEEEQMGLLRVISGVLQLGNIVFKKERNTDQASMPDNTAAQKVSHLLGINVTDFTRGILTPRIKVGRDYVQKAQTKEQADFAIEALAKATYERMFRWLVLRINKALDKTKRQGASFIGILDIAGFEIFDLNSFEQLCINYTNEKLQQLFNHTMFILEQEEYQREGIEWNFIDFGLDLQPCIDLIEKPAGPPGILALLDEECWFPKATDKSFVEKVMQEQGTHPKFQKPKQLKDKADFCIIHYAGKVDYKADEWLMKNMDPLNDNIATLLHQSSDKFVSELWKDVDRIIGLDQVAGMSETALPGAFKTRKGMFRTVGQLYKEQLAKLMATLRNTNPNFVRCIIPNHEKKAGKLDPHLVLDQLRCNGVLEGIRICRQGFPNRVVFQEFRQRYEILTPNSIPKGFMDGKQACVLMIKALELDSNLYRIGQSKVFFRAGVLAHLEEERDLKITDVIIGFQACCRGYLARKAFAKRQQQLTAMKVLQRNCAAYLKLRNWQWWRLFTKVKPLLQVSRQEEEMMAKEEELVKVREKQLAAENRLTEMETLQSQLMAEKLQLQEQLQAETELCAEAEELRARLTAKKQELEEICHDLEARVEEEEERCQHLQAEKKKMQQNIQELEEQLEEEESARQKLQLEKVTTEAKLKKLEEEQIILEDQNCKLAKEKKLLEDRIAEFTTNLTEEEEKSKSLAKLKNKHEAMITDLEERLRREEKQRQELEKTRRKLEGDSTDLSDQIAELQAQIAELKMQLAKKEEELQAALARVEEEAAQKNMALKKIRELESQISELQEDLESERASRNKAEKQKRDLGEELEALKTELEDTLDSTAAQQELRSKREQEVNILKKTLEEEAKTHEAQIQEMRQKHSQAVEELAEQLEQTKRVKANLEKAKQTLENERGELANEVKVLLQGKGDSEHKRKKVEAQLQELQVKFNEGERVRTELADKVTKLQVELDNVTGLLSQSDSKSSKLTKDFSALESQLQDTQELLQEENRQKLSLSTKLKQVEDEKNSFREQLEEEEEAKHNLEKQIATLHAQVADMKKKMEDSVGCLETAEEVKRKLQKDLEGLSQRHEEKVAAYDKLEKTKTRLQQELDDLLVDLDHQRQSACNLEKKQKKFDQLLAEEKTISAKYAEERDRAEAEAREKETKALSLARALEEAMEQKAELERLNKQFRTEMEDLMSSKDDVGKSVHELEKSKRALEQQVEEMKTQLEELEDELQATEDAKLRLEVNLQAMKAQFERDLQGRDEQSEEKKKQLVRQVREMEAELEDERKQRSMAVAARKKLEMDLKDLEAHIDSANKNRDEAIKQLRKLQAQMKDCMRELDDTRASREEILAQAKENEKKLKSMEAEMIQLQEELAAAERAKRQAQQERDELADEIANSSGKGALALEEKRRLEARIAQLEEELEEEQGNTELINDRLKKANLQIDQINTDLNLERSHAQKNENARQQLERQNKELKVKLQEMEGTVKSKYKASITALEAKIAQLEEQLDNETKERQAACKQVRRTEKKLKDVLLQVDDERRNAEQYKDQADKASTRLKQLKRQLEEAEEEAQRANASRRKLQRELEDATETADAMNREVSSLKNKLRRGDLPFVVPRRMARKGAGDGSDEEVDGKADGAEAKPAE

Biological target: T1, Flag-NudCL2 (NudC-like protein 2) (human) (UniProt Q8WVJ2)
T1 sequence: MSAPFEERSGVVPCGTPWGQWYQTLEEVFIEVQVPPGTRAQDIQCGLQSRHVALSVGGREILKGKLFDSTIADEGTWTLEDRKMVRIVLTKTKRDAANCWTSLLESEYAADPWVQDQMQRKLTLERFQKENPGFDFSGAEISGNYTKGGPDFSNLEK
Test: affinity purification with mass spectrometry; HeLa cells transfected with Flag-NudCL2; immunoprecipitation with anti-FLAG antibody-coupled beads; trypsin digestion, LC-MS/MS

binding: binds
Substance: myosin-9 (endogenous, HeLa) (from UniProt P35579 1-1960)
